# This list was built around the results that the source calls inconclusive (neither active nor inactive); the mix of calls is not that of the screen. For some assays here: Where the call is inconclusive, the potency comes from a doubtful curve fit. Active and inactive are the calls of the source. Unless noted, calls come from the whole dose curve; as a rule, active = well fitted curve in the direction sought with a large enough effect; inconclusive = small, poorly fitted or top-dose-only effect, or another doubt; inactive = no such curve, though single readings can be large; an effect the other way counts as inactive or inconclusive.
# Sequences of proteins named here, by UniProt entry; tags and fusion partners are left off.
# UniProt P08684, whole entry, looked up: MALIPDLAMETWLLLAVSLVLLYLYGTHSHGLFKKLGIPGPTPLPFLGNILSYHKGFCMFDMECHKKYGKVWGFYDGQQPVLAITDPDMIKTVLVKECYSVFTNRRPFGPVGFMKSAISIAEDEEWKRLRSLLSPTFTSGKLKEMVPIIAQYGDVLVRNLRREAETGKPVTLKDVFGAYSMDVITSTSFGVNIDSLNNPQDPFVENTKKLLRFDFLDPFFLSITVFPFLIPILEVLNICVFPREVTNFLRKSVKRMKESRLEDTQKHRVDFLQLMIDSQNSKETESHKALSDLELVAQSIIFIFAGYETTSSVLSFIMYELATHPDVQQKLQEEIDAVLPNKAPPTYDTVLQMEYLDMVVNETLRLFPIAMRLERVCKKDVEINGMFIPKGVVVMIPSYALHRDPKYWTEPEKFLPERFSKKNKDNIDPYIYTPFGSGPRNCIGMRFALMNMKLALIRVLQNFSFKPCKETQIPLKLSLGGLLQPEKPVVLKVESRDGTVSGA
# UniProt P10635, whole entry, looked up: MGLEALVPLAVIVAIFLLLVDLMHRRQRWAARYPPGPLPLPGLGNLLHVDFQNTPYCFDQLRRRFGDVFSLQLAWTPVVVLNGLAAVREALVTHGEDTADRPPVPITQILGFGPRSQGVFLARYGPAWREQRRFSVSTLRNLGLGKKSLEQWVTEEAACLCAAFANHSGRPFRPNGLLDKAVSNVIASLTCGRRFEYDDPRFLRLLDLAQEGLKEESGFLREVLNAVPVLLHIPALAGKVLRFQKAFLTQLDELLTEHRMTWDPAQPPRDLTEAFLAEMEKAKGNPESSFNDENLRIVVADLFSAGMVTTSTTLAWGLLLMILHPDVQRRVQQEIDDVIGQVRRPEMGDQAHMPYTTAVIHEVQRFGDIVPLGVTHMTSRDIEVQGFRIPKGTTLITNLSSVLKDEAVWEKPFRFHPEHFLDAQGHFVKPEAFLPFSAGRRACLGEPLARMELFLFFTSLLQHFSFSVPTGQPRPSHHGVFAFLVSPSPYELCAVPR
# UniProt P33261, whole entry, looked up: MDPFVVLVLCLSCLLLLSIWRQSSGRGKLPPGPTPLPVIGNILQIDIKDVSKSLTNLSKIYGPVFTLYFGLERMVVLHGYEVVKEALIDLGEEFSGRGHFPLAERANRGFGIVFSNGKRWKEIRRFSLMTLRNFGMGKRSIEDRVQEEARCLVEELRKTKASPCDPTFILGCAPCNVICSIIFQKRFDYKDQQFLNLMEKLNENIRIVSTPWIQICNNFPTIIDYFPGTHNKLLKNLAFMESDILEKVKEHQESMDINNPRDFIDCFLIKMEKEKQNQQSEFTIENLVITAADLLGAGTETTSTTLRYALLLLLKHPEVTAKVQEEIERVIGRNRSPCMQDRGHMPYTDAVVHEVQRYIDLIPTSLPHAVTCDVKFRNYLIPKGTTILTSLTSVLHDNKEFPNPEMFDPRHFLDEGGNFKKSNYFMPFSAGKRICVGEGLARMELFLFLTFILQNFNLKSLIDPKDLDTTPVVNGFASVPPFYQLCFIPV
# Assays:
# [1] = Quantitative High-Throughput drug screen in 47 multiple myeloma cell lines against the NCATS MIPE library collection: VP6_DJ cell viability assay (AID 1919867); note: nearly all actives have a fitted effect of over 40% in size; note: potency is the fitted concentration of half-maximal effect
# In short: (§1)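 Viability after 48 h drug exposure was measured as ATP-dependent luminescence. Cells, 500 per well, sat at 37 °C under 5% CO2; DMSO wells set 100%, media-only wells 0%.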
# [2] = Quantitative High-Throughput drug screen in 47 multiple myeloma cell lines against the NCATS MIPE library collection: PCM6_Riken cell viability assay (AID 1919870); note: nearly all actives have a fitted effect of over 30% in size; note: potency is the fitted concentration of half-maximal effect
# In short: as §1
# [3] = Quantitative High-Throughput drug screen in 47 multiple myeloma cell lines against the NCATS MIPE library collection: OPM2_DSMZ cell viability assay (AID 1919872); note: nearly all actives have a fitted effect of over 30% in size; note: potency is the fitted concentration of half-maximal effect
# In short: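 Inhibition of cell viability is measured here. Each line was plated at 500 cells per well, treated with MIPE 4.0 drugs, kept 48 hours at 37C, then assayed for ATP content by CellTiter-Glo luminescence.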
# [4] = Quantitative High-Throughput drug screen in 47 multiple myeloma cell lines against the NCATS MIPE library collection: KMS11_JCRBsus cell viability assay (AID 1919873); note: nearly all actives have a fitted effect of over 50% in size; note: potency is the fitted concentration of half-maximal effect
# In short: as §1
# [5] = Quantitative High-Throughput drug screen in 47 multiple myeloma cell lines against the NCATS MIPE library collection: KMS28BM_JCRB cell viability assay (AID 1919874); settings: CellTiter-Glo ATP, 48 h; series mostly up to 45.8 µM; note: nearly all actives have a fitted effect of over 35% in size; note: potency is the fitted concentration of half-maximal effect
# In short: as §1
# [6] = qHTS for identification of novel therapeutic agents for treatment of microphthalmiaassociated transcription factor (MiT) renal cell carcinoma (RCC) (AID 1963991; calls by dose curve; note: potency is the fitted concentration of half-maximal effect); settings: TFE3-RCC UOK109 viability, CellTiter-Glo, 48 h; active = Z-AUC below -0.8 in all three lines
# In short: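 Viability of three TFE3-fusion renal carcinoma lines measured by CellTiter-Glo after 48 h treatment with each of 1912 compounds at 11 concentrations. Responses scaled between DMSO (100%) and empty wells (0%) before curve fitting.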
# [7] = Quantitative High-Throughput drug screen in 47 multiple myeloma cell lines against the NCATS MIPE library collection: RPMI8226_ATCC cell viability assay (AID 1919871); settings: RPMI8226 myeloma viability, CellTiter-Glo ATP luminescence, 48 h; viability (% of control): at 45.8 µM (top of the series); note: nearly all actives have a fitted effect of over 30% in size; note: potency is the fitted concentration of half-maximal effect
# In short: as §1
# [8] = Quantitative High-Throughput drug screen in 47 multiple myeloma cell lines against the NCATS MIPE library collection: PE2_PLB cell viability assay (AID 1919869); settings: PE2_PLB myeloma cells viability, ATP luminescence, 48 h; viability (% of control): at 45.8 µM (top of the series); note: nearly all actives have a fitted effect of over 35% in size; note: potency is the fitted concentration of half-maximal effect
# In short: as §1
# [9] = Quantitative High-Throughput drug screen in 47 multiple myeloma cell lines against the NCATS MIPE library collection: UTMC2_PLB cell viability assay (AID 1919868); settings: CellTiter-Glo ATP luminescence, 48 h; series mostly up to 45.8 µM; note: nearly all actives have a fitted effect of over 55% in size; note: potency is the fitted concentration of half-maximal effect
# In short: as §1
# [10] = molecular target: Cytochrome P450 3A4 (Homo sapiens) (UniProt P08684); experiment: qHTS for inhibitors of CYP3A4 against the NCATS DSHEA and TCM libraries (AID 1919971);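 note: inhibition lowers luminescence from luciferin made by CYP3A4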
# In short: (§2)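 Light output from converted D-luciferin reports remaining CYP activity. Compounds preincubate with enzyme and substrate for 15 min; NADPH regeneration (1x final) runs the reaction for 30-45 min.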
# [11] = molecular target: Cytochrome P450 2D6 (Homo sapiens) (UniProt P10635); experiment: qHTS for inhibitors of CYP2D6 against the NCATS DSHEA and TCM libraries (AID 1919972); note: potency is the fitted concentration of half-maximal effect
# In short: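 Steps: enzyme plus luciferin substrate dispensed; test substances pinned; 15 min RT; 1x NADPH regenerating solution added, 30–45 min RT protected from light; detection reagent, 30 min RT; luminescence measured. Minus-enzyme wells as background.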
# [12] = molecular target: Cytochrome P450 2C19 (Homo sapiens) (UniProt P33261); experiment: qHTS for inhibitors of CYP2C19 against the NCATS DSHEA and TCM libraries (AID 1919974); settings: CYP2C19 enzyme inhibition, luminescence qHTS;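 note: luminescence from luciferin released by CYP2C19 oxidation of a pro-luciferin substrate; potency is the fitted concentration of half-maximal effect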
# In short: as §2
# [13] = Dual reporter qHTS for agonist of Pregnane X Receptor (hPXR) against the NCATS DSHEA and TCM libraries: Fluorescence readout (AID 1920058); settings: PXR dual reporter cells; note: potency is the fitted concentration of half-maximal effect
# In short: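 Measures viability of the PXR reporter HepG2 line by protease-substrate fluorescence (405/540 nm), taken 1 h after CellTiter-Fluor addition. Substances are tested as concentration series over a ~24 h exposure, with rifampicin as agonist control.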
# [14] = tested on: 7G8; experiment: qHTS profiling for inhibitors of Plasmodium falciparum proliferation (AID 504749); note: potency is the fitted concentration of half-maximal effect; nearly all actives have a fitted effect of over 60% in size; settings: P. falciparum in erythrocytes, SYBR Green DNA, 72 h; series mostly up to 28.7 µM
# In short: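 Readout was DNA-dye fluorescence from lysed cultures, ex 485/em 535 nm. Parasitized red cells had grown 72 h with compound; data scaled between 0.29 uM artemisinin and DMSO wells and corrected using vehicle-only plates.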
smiles,measurement,setting,value
CN(C)c1nc(Cc2ccc(NC(=O)c3ccc(C(F)(F)F)cc3)cc2)nc(N(C)C)c1CC(=O)O,Potency,[1],"inconclusive: 2.96 µM [cytotoxic, full curve, poor fit]"
same,Potency,[2],inconclusive: 0.001 µM
same,Potency,[3],"inconclusive: 18.7 µM [cytotoxic, partial curve, poor fit]"
same,Potency,[4],inactive
CC(C)(C)OC(=O)Nc1ccc(-c2cc(C(=O)NCCCCCCC(=O)NO)no2)cc1,Potency,[1],active: 0.833 µM
same,Potency,[2],active: 1.87 µM
same,Potency,[5],active: 1.05 µM
same,Potency,[6],"inconclusive: 11.8 µM [falling, partial curve]"
COc1cc2ncn(-c3cc(OCc4ccccc4S(C)(=O)=O)c(C#N)s3)c2cc1OC,Potency,[1],"inconclusive: 3.72 µM [cytotoxic, full curve, poor fit]"
same,Potency,[2],inactive
same,Potency,[4],"inconclusive: 0.833 µM [cytotoxic, full curve, poor fit]"
same,Potency,[5],"inconclusive: 0.935 µM [cytotoxic, full curve, poor fit]"
same,Potency,[6],"inconclusive: 1.87 µM [falling, full curve]"
COc1c(Cl)cc2c([nH]c3cnccc32)c1NC(=O)c1cccnc1C,Potency,[1],"inconclusive: 5.26 µM [cytotoxic, full curve, poor fit]"
same,Potency,[7],inactive
same,Potency,[3],inactive
same,Potency,[6],"inconclusive: 3.72 µM [falling, full curve]"
CCC(=O)N1CCN(c2ccc(-n3c(=O)ccc4cnc5ccc(-c6cnc7ccccc7c6)cc5c43)cc2C(F)(F)F)CC1,Potency,[1],"inconclusive: 0.0093 µM [cytotoxic, full curve]"
same,Potency,[2],"inconclusive: 0.0296 µM [cytotoxic, full curve]"
same,Potency,[7],"inconclusive: 0.0083 µM [cytotoxic, full curve]"
same,Potency,[4],"inconclusive: 0.0033 µM [cytotoxic, full curve]"
same,Potency,[5],"inconclusive: 0.0105 µM [cytotoxic, full curve]"
same,Potency,[6],active: 0.0209 µM
CC(=O)O[C@H]1C(=O)[C@@]2(C)C([C@H](OC(=O)c3ccccc3)[C@]3(O)C[C@H](OC(=O)[C@H](O)[C@@H](NC(=O)c4ccccc4)c4ccccc4)C(C)=C1C3(C)C)[C@]1(OC(C)=O)CO[C@@H]1C[C@@H]2O (some centres undefined),Potency,[1],inactive
same,Potency,[2],inactive
same,Potency,[7],inactive
same,Potency,[3],"inconclusive: 0.0017 µM [cytotoxic, full curve]"
same,Potency,[5],"inconclusive: 23.5 µM [cytotoxic, single point]"
same,Potency,[6],active: 0.0418 µM
COC(=O)[C@H](CCCN=C(N)N)NS(=O)(=O)c1ccc(C)cc1,Potency,[1],"inconclusive: 20.9 µM [cytotoxic, partial curve, poor fit]"
same,Potency,[8],inactive
same,Potency,[7],"inconclusive: 0.0118 µM [rising, full curve, poor fit]"
same,Potency,[4],inactive
same,Potency,[5],inactive
Cc1ccc(S(=O)(=O)OCC(=O)Nc2ccc(C(=O)O)c(O)c2)cc1,Potency,[9],active: 9.35 µM
CC(C)[C@H](C(=O)Nc1ccc(C(=O)NO)cc1)c1ccccc1,Potency,[1],active: 0.372 µM
same,Potency,[8],active: 1.05 µM
same,Potency,[6],active: 1.87 µM
Cc1cc2nc3c(=O)[nH]c(=O)nc-3n(CC(O)C(O)C(O)CO)c2cc1C (centres undefined),Potency,[1],"inconclusive: 20.9 µM [cytotoxic, single point]"
same,Potency,[2],"inconclusive: 0.0013 µM [rising, full curve, poor fit]"
same,Potency,[7],"inconclusive: 0.59 µM [cytotoxic, full curve, poor fit]"
same,Potency,[3],inactive
same,Potency,[10],inactive
same,Potency,[11],"inconclusive: 15.8 µM [inhibitor, partial curve]"
same,Potency,[12],"inconclusive: 7.94 µM [inhibitor, full curve]"
same,Potency,[13],active: 28.2 µM
same,Potency,[14],"inconclusive: 11.2 µM [inhibitor, single point]"
Nc1nc(Cl)nc2c1ncn2[C@@H]1O[C@H](CO)[C@@H](O)[C@H]1F,Potency,[1],active: 0.187 µM
same,Potency,[2],"inconclusive: 0.187 µM [cytotoxic, full curve]"
same,Potency,[3],"inconclusive: 20.9 µM [cytotoxic, partial curve, poor fit]"
same,Potency,[4],"inconclusive: 4.69 µM [cytotoxic, partial curve]"
same,Potency,[6],"inconclusive: 20.9 µM [falling, single point]"
NCCCC(N)(C(=O)O)C(F)F (centres undefined),Potency,[1],"inconclusive: 2.64 µM [cytotoxic, full curve, poor fit]"
same,Potency,[2],"inconclusive: 0.372 µM [cytotoxic, full curve, poor fit]"
same,Potency,[7],"inconclusive: 1.32 µM [cytotoxic, full curve]"
same,Potency,[3],inactive
same,Potency,[6],"inconclusive: 1.66 µM [falling, partial curve, poor fit]"
O=C(c1ccc(C=Cc2n[nH]c3ccccc23)cc1)N1CCNCC1,Potency,[1],active: 3.72 µM
same,Potency,[2],active: 16.6 µM
same,Potency,[7],"inconclusive: 3.32 µM [cytotoxic, full curve]"
same,Potency,[5],"inconclusive: 3.72 µM [cytotoxic, partial curve, poor fit]"
same,Potency,[6],inconclusive: 0.0935 µM
CC(C)C[C@H](NC(=O)c1cc2ccccc2s1)C(=O)N1CCN(C(=O)[C@H](CO)NS(=O)(=O)c2ccc(Cl)cc2Cl)CC1,Potency,[9],"inconclusive: 0.0021 µM [rising, full curve, poor fit]"
same,Potency,[8],active: 23.5 µM
same,Potency,[7],"inconclusive: 20.9 µM [cytotoxic, partial curve]"
same,Potency,[3],"inconclusive: 29.6 µM [cytotoxic, single point]"
same,Potency,[5],active: 20.9 µM
same,Potency,[6],"inconclusive: 20.9 µM [falling, partial curve]"
CC1(C)OC2CC3C4CC(F)C5=CC(=O)C=CC5(C)C4C(O)CC3(C)[C@]2(C(=O)CO)O1 (some centres undefined),Potency,[9],inactive
same,Potency,[8],"inconclusive: 0.0083 µM [rising, full curve, poor fit]"
same,Potency,[4],active: 0.0264 µM
same,Potency,[5],inactive
CCc1cc(-c2n[nH]c(C)c2-c2ccc3c(c2)OCCO3)c(O)cc1O,Potency,[9],"inconclusive: 5.26 µM [cytotoxic, full curve, poor fit]"
same,Potency,[8],active: 8.33 µM
same,Potency,[7],active: 6.62 µM
same,Potency,[3],active: 7.43 µM
same,Potency,[4],active: 1.87 µM
same,Potency,[6],"inconclusive: 11.8 µM [falling, partial curve, poor fit]"
COc1ccc(Cn2ccc3ccc(C(=O)NO)cc32)cc1,Potency,[9],"inconclusive: 37.2 µM [cytotoxic, partial curve, poor fit]"
same,Potency,[8],"inconclusive: 16.6 µM [cytotoxic, partial curve, poor fit]"
same,Potency,[2],"inconclusive: 16.6 µM [cytotoxic, partial curve, poor fit]"
same,Potency,[4],"inconclusive: 16.6 µM [cytotoxic, partial curve, poor fit]"
same,Potency,[5],inactive
same,Potency,[6],"inconclusive: 13.2 µM [falling, partial curve]"
Cc1ccc(S(=O)(=O)NC(=O)NN2CC3CCCC3C2)cc1 (centres undefined),Potency,[9],"inconclusive: 26.4 µM [cytotoxic, partial curve, poor fit]"
same,Potency,[8],"inconclusive: 33.2 µM [cytotoxic, single point]"
same,Potency,[3],"inconclusive: 37.2 µM [cytotoxic, single point]"
same,Potency,[6],"inconclusive: 18.7 µM [falling, partial curve]"
Cc1cc(C(C)Nc2ccccc2)c2nc(N3CCOCC3)cc(=O)n2c1 (centres undefined),Potency,[9],"inconclusive: 16.6 µM [cytotoxic, partial curve, poor fit]"
same,Potency,[8],"inconclusive: 7.43 µM [cytotoxic, full curve]"
same,Potency,[2],"inconclusive: 3.72 µM [cytotoxic, full curve]"
same,Potency,[7],inactive
same,Potency,[5],"inconclusive: 0.0026 µM [rising, full curve, poor fit]"
same,Potency,[6],"inconclusive: 0.0418 µM [falling, full curve]"
OCCn1cc(-c2ccc3c(c2)CCC3=NO)c(-c2ccncc2)n1,Potency,[9],"inconclusive: 0.0372 µM [rising, full curve, poor fit]"
same,Potency,[8],"inconclusive: 33.2 µM [cytotoxic, single point]"
same,Potency,[4],"inconclusive: 33.2 µM [cytotoxic, single point]"
same,Potency,[6],"inconclusive: 23.5 µM [falling, single point]"
O=C1CSC(=O)N1C(CCc1ccncc1)COc1ccc(-c2cccc([N+](=O)[O-])c2)cc1 (centres undefined),Potency,[9],"inconclusive: 4.69 µM [cytotoxic, full curve, poor fit]"
same,Potency,[8],active: 16.6 µM
same,Potency,[2],"inconclusive: 10.5 µM [cytotoxic, partial curve]"
same,Potency,[3],"inconclusive: 2.35 µM [cytotoxic, partial curve, poor fit]"
same,Potency,[4],active: 11.8 µM
same,Potency,[6],"inconclusive: 18.7 µM [falling, partial curve]"
COc1ccc2c(c1)CC[C@@H](CN(C)CC(=O)O)[C@H]2c1ccccc1,Potency,[9],"inconclusive: 0.469 µM [cytotoxic, full curve, poor fit]"
same,Potency,[8],"inconclusive: 2.35 µM [cytotoxic, full curve]"
same,Potency,[3],active: 8.33 µM
same,Potency,[6],"inconclusive: 10.5 µM [falling, full curve]"
CCN1CCCC1CNC(=O)c1cc(S(N)(=O)=O)ccc1OC (centres undefined),Potency,[9],"inconclusive: 0.0166 µM [cytotoxic, full curve, poor fit]"
same,Potency,[8],"inconclusive: 0.0187 µM [rising, full curve, poor fit]"
same,Potency,[2],"inconclusive: 5.26 µM [cytotoxic, full curve, poor fit]"
same,Potency,[7],inactive
same,Potency,[5],inactive
CC(C)c1noc(N2CCC(COc3ccc(-c4ccc(S(C)(=O)=O)cc4)nc3)CC2)n1,Potency,[9],"inconclusive: 0.0093 µM [cytotoxic, full curve, poor fit]"
same,Potency,[8],inactive
same,Potency,[2],active: 4.69 µM
same,Potency,[7],active: 7.43 µM
same,Potency,[3],inactive
same,Potency,[5],"inconclusive: 1.32 µM [cytotoxic, full curve, poor fit]"

# Source: PubChem BioAssay (NCATS)
